In all, about 33,000 sequences were measured (“E-score (-0.5 to 0.5)”: median about -0.0034, highest 2% from about 0.25 on). Some of the results follow.
target: T1, Yap3 (UniProt P38749); assay: PBM E-score (8-mer binding enrichment) (E-score (-0.5 to 0.5)); higher = stronger / more preferred TF binding; conditions: protein concentration: 100 nM; construct: GST-full length
T1 sequence: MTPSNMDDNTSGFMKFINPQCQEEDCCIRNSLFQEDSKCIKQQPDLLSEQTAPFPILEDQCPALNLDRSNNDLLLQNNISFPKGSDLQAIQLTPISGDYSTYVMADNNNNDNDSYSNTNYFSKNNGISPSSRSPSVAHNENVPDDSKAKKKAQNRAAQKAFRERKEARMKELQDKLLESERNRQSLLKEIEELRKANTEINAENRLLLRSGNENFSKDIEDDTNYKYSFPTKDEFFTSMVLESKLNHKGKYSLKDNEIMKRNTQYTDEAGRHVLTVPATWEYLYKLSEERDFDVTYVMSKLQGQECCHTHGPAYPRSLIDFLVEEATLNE
Procedure, shortened: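 The E-score, a modified Wilcoxon-Mann-Whitney statistic, was computed by the Universal PBM Analysis Suite for every ungapped eight-base word pooled with its reverse complement. Scans behind it were normalised with masliner after bound GST-tagged yeast transcription factors were detected with fluorescent anti-GST. The proteins, at about 100-200 nM, had been applied to universal all-10-mer Agilent arrays made double-stranded by primer extension.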

Sequence	PBM E-score
AGCTGCAC	-0.0225
ACTCTTTG	-0.0249
CCAACCAC	0.0919
AACTCACA	0.132
TCGGGCCA	-0.132
AGCGCACA	0.0378
GTAATCAC	0.148
AACCGTAC	-0.127
CCCCGTTC	-0.264
ACGTTAAT	0.178
CACCGAAC	-0.131
CCGATCAG	-0.00295
TACCCAGA	0.0688
CACGCGTG	0.0849
ATCGGGAA	0.0249
CGTAGTTA	0.0738
CCGCTCCA	-0.282
ACCCACCG	-0.00295
GATAAGCC	-0.133
CATATTAG	0.184
AGGCTCCA	-0.127
CCCGTAAA	0.0336

2 entries from above, set out differently:

| Sequence | PBM E-score |
| --- | --- |
| AGGCTCCA | -0.127 |
| CCCGTAAA | 0.0336 |

(list continues)

Sequence	PBM E-score
ACACGGAC	-0.0491
CACAATTA	0.106
GTATGTAA	0.151
GACCGGTC	-0.175
GACCTTCC	-0.156
GAAGGGGA	-0.233
ATTACTAG	-0.0453
ATTCCTGG	-9e-05
GCGGCCAA	-0.0885
GGCTTGTA	-0.0856
ACATGGGA	0.154
TATACGGA	0.0234
CCCTTTAA	-0.0346
AGACAGCC	-0.152
CCACCGTC	-0.265
TATGCTAA	0.0405
AAGTTCTC	0.0195
AGTAAGCG	0.101
CGGATCAC	0.0833
GCCTTACA	-0.231
ATGCCGTA	0.101
CGCATTGC	0.0586

Quoted at random: four records from the list
Sequence	PBM E-score
ATCGGGAA	0.0249
ACGTTAAT	0.178
AGCGCACA	0.0378
CCGCTCCA	-0.282

Continuation.

Sequence	PBM E-score
CACGCCTG	-0.281
AAGTACCG	0.0832
CTGAACGA	-0.0456
ACATCGTG	-0.00683
AAGGATTG	0.044
AGCACCAA	0.0943
GTCACATA	-0.0505
AACCGATC	-0.0797
CACACACC	-0.0904
CTCCGGCC	-0.343
CATCTCAC	-0.0458
CTCTCTCA	-0.0104
AAGTTTGT	0.0855
CCATCCGC	-0.0491
AAAGAGGC	-0.0407
ATGCAGGC	-0.0848
CGATCCAC	-0.0503
CCTCAAGG	-0.145
TGGCGTAA	-0.0144
AGGCGTGA	-0.218
CAAGGCAG	-0.0175
GAGCCGAA	-0.0315

Sequence	PBM E-score
ATTCCACC	0.102
ACTGACAC	0.0624
AAGGGAAT	0.0766
GCCCCCAC	-0.379
CTCCTCTC	-0.269
ATCGAAGA	0.154
ACGAGGAC	0.0227
CGCACTAA	0.166
CGTATCGC	0.0192
TTCCACAA	0.192
TACAGCCA	-0.0886
CGTAATAA	0.29
AGCTACAC	-0.0326
CTTCTCGC	0.143
CGGCTGAC	-0.056
CGTTTCTA	0.148
ATTTCGCC	0.225
GATACCTA	0.232
ATCATGAG	0.0895
GATACAGA	0.111
